Patent US20040255343A1, “Caspase-9 deficient animals and the use thereof” (priority 1998, published 2004)
At least one structure is not confirmed: it was looked up by name or label, or the drawing left a doubt.

System: Caspase-9 −/− thymocytes
Test: Apoptosis assay using thymocytes (Annexin V / 7-AAD, FACS)
Format: cell-based, mice
Settings: Caspase-9 −/− thymocytes vs wild type; 2 μM dexamethasone, 1 μM staurosporine or 1 μg/ml anti-mouse Fas antibody plus cycloheximide; 6 hr or 24 hr
Description: To investigate the role of Caspase-9 in apoptosis pathways in other systems, we used primary cultures of thymocytes. Although thymocytes from Caspase9 −/− animals developed normally with no differences in the number of thymocytes or in the ratio of surface markers such as CD4, CD8 or CD3 (data not shown), we challenged the thymocytes with several apoptotic stimuli: dexamethasone, staurosporine, and anti-Fas antibody
Thymocytes were isolated from wild type and Caspase9 −/− mice. One million cells were treated with 2 μM dexamethasone (Sigma), 1 μM staurosporine (Sigma), 1 μg/ml anti-mouse Fas antibody (PharMingen) plus […] cycloheximide (Sigma), or 10% FCS medium only for 6 hr or 24 hr. Samples were stained with Annexin V (Boehringer Mannheim) and 7-aminoactinomycin D (7-AAD) (Sigma) to label apoptotic cells for FACS Sort (Becton Dickinson).

With `C[C@@H]1C[C@H]2[C@@H]3CCC4=CC(=O)C=C[C@]4(C)[C@@]3(F)[C@@H](O)C[C@]2(C)[C@@]1(O)C(=O)CO` [dexamethasone] the “thymocyte survival / induced cell death” value was “resistant to dexamethasone-induced cell death”.
